Results published in patent US20190382776.
The exact form of at least one protein or probe is not confirmed. Tags and fusion partners may be left off the protein sequences shown.

Target: T1, Cre recombinase (UniProt P06956)
T1 sequence (looked up, limits assumed): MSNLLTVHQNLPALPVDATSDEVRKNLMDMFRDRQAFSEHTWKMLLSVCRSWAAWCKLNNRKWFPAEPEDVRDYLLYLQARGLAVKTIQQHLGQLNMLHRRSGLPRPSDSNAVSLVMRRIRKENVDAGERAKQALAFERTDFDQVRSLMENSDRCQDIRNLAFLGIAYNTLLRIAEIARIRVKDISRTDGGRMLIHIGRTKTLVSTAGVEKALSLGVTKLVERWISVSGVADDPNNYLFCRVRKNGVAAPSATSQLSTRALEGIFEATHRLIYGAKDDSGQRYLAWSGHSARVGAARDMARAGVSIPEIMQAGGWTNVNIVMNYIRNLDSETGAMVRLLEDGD
Experiment: enzyme reaction in vitro
Settings: in vitro recombination of pLM495 (5 loxPsym sites), 37 C 1 h, NEB buffer; about 28% inversions; about 70% deletions with synIXR-BAC (43 sites); purified recombinant protein; protein details: NEB M0298L / M0298M

## ATAACTTCGTATAATGTACATTATACGAAGTTAT (double strand) [loxPsym]
  activity on this sequence (% colonies with at least one deletion): 27
